{
  "source": "patent US20210338820A1",
  "about": "“PHARMACEUTICAL COMPOSITION COMPRISING ANTIEMETIC COMPOUNDS AND POLYORTHOESTER” (Heron Therapeutics, Inc., priority 2012, published 2021)",
  "assay": "Pharmacokinetic study in dogs, subcutaneous semi-solid formulation of granisetron and fosaprepitant",
  "settings": "single subcutaneous injection 0.5 gm formulation (20 mg/gm granisetron, 150 mg/gm fosaprepitant), plasma, FIG. 2",
  "note": "The name of at least one read-out is uncertain.",
  "data": [
    {"smiles": "CN1C2CCCC1CC(NC(=O)c1nn(C)c3ccccc13)C2", "note": "(stereo not shown) [granisetron]", "values": [
      {"measurement": "time at which Cmax is reached", "value": "about 6 hours"}
    ]}
  ]
}
